Experimental data reported in publication PMC8854210.
Results are given in words; binding and its absence hold for the method and conditions named. Some binding calls cover weakened binding; strength is not graded here.

By UniProt entry, the sequences of proteins in these tests, tags left out. Where a name states a change or a piece, a line headed by the entry shows the natural chain unless it says otherwise.
UniProt Q39255: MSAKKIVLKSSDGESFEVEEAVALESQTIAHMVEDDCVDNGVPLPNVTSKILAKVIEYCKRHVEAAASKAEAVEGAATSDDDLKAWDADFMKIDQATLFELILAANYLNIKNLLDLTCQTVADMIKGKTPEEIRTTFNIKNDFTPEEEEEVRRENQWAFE

Molecular target: T1, DBD-COI1 (CORONATINE … 1) (Arabidopsis thaliana) (UniProt O04197)
T1 sequence: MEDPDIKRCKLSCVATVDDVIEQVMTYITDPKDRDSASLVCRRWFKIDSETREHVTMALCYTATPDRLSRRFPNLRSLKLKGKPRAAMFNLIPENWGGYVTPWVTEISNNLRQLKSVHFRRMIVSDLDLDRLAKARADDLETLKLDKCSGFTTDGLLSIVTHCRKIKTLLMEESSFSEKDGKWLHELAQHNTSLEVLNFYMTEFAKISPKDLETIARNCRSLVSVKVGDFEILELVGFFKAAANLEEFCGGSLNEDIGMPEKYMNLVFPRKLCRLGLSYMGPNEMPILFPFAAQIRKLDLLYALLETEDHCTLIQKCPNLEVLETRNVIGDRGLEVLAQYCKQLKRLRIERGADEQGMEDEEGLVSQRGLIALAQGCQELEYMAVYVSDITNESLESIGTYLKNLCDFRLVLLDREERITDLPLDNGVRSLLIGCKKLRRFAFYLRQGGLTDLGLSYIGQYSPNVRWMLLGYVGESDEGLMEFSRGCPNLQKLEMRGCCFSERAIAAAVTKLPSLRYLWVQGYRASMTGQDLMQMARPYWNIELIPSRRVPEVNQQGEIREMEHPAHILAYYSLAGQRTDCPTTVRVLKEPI
Assay: two-hybrid; S. cerevisiae EGY48 [pSH18-34] co-expressing DBD-COI1 and AD-ASK1 or AD-ask1 C118A; SD-U-H-T media with X-Gal, with and without 100 uM SNP (NO donor), ambient light, 48 h; beta-galactosidase reporter

binding | Substance
binds | AD-ASK1 (Arabidopsis thaliana SKP1, S-PHASE KINASE-ASSOCIATED PROTEIN 1) (from UniProt Q39255 1-160)
binds | AD-ask1 C118A (from UniProt Q39255 1-160)
